Test results published in publication doi:10.1101/2020.11.04.368498.
No constants are given. Whether binding was seen depends on the method and setting. Some binding calls cover weakened binding; strength is not graded here. Sequences can lack the tags named with a protein.

Chains of the proteins cited; added tags and fusions are not shown.
UniProt Q07955: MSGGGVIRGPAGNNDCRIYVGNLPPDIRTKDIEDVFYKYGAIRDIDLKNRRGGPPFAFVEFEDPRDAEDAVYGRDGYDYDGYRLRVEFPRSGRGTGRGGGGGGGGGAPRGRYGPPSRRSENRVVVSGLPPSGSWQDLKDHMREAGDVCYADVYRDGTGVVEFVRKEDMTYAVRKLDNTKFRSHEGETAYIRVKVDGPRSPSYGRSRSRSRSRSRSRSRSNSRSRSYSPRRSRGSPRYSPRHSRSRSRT
UniProt O75494: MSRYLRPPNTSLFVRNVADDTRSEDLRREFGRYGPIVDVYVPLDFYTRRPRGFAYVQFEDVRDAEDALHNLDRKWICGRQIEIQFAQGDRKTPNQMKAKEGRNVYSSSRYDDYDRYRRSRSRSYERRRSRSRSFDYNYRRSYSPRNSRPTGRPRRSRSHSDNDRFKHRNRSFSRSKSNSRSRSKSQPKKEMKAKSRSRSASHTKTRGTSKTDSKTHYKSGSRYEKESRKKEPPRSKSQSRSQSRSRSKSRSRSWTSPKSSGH
UniProt Q8WXF0: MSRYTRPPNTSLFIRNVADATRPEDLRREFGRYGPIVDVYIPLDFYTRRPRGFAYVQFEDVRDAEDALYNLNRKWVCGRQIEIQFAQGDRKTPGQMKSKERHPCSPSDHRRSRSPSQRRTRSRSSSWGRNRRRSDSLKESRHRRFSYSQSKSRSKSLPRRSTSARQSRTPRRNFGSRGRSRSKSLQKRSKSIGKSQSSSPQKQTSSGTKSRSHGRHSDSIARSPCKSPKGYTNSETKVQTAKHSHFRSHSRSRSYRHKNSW
UniProt P26599: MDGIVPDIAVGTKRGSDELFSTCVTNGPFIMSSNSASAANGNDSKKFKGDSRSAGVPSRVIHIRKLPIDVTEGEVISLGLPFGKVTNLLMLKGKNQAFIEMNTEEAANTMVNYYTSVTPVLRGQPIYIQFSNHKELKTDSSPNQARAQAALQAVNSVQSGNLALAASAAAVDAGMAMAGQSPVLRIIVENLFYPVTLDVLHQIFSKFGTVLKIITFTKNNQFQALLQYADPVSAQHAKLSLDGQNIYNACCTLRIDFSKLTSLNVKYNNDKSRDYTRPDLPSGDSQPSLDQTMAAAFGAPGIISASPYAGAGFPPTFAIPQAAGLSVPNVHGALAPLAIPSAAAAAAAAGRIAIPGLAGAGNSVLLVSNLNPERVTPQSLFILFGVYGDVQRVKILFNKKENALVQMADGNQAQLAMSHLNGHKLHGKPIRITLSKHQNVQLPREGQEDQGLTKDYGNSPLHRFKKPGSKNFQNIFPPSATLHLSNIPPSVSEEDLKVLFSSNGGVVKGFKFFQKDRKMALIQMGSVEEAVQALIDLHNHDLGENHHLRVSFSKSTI

Assays:
Test in all cases: pull-down
[1] = molecular target: FLAG-tagged SRSF1, full-length (UniProt Q07955)
FLAG-tagged SRSF10 = FLAG-tagged SRSF10 (UniProt O75494)
FLAG-tagged SRSF12 = FLAG-tagged SRSF12 (UniProt Q8WXF0)
FLAG-tagged SRSF2 = molecular target: T1, FLAG-tagged SRSF2 (UniProt Q01130)
T1 sequence: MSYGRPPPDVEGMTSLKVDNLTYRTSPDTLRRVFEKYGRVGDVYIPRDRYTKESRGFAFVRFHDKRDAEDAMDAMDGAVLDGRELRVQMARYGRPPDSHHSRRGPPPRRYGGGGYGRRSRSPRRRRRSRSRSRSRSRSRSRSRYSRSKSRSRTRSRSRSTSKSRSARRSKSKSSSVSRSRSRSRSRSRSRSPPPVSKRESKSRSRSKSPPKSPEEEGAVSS

FLAG-tagged SRSF4 = molecular target: T2, FLAG-tagged SRSF4 (UniProt Q08170)
T2 sequence: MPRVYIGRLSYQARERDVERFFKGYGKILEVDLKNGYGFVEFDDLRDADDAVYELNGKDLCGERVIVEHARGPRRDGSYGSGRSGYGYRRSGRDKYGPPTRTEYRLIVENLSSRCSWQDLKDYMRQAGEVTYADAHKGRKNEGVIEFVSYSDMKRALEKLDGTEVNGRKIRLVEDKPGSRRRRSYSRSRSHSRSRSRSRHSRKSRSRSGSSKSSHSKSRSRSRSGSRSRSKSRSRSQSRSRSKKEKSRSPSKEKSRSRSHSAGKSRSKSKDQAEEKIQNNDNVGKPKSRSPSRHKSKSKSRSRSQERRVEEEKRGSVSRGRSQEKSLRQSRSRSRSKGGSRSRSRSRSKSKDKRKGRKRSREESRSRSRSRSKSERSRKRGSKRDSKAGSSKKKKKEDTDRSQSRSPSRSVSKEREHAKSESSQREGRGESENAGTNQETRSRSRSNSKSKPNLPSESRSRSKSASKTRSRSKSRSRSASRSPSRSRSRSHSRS

GST-tagged PTBP1 = GST-tagged PTBP1 (UniProt P26599)
GST-tagged SRSF7 = molecular target: T3, GST-tagged SRSF7 (UniProt Q16629)
T3 sequence: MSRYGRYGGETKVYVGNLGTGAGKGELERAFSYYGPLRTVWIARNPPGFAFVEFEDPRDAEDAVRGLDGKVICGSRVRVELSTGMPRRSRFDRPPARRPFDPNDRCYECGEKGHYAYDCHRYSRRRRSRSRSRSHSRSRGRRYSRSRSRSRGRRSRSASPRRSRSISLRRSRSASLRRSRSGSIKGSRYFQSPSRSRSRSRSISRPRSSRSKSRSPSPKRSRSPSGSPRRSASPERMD

Measured: binding

B1: HIS-tagged Aurora-A (enzyme, UniProt O14965 1-403)
chain: MDRSKENCISGPVKATAPVGGPKRVLVTQQFPCQNPLPVNSGQAQRVLCPSNSSQRIPLQAQKLVSSHKPVQNQKQKQLQATSVPHPVSRPLNNTQKSKQPLPSAPENNPEEELASKQKNEESKKRQWALEDFEIGRPLGKGKFGNVYLAREKQSKFILALKVLFKAQLEKAGVEHQLRREVEIQSHLRHPNILRLYGYFHDATRVYLILEYAPLGTVYRELQKLSKFDEQRTATYITELANALSYCHSKRVIHRDIKPENLLLGSAGELKIADFGWSVHAPSSRRTTLCGTLDYLPPEMIEGRMHDEKVDLWSLGVLCYEFLVGKPPFEANTYQETYKRISRVEFTFPDFVTEGARDLISRLLKHNPSQRPMLREVLEHPWITANSSKPSNCQNKESASKQS
binds: [1] | FLAG-tagged SRSF10 | FLAG-tagged SRSF12 | FLAG-tagged SRSF2 | FLAG-tagged SRSF4 | GST-tagged PTBP1 | GST-tagged SRSF7
